We go through five sequences from patent US20150099796.

The exact form of at least one protein or probe is not confirmed. Negatives hold for the conditions tested.

Data set [1] deals with U1 snRNP (U1 small nuclear ribonucleoprotein, HeLa) (Homo sapiens). The data set can be described thus: EMSA. The note with it: purified native protein.
The test system is the same in data set [2]. The data set can be described thus: competition with a labelled probe. As to conditions: LNA/DNA Target Domain, 2'-OMe U1 Domain (7 nt); no detectable competition against 32P-U1D-RNA; purified native protein.

Turning to CAACUCACUA [mutated U1 Domain RNA], the binding result in data set [1] (CITED Abad 2008, Gunderson 1998, variant of 10 nt U1 Domain RNA) was “no binding”.

Take “CAGAAATACACAATACAACTCACTA [UA7a Adaptor (LNA7)]”: the binding result in data set [1] (LNA/DNA mixmer, mutated U1 Domain, no complex, variant of UA6 Adaptor (LNA6)) is on record as “no binding”.

For “CAGAAATACACAATACAGGTAAGTA [UA6 Adaptor (LNA6)]”, the binding result in data set [1] (LNA/DNA mixmer, radiolabeled UA6 bound, unlabeled UA6 also tethers U1 snRNP to 32P-UA6-RNA, recognition by base pairing with U1 snRNA, 100 mM KCl, 1.5 mM MgCl2, pH 7.9) is on record as “binds”.

On to CAGAAATACACAATACAGGUAA [UA17-7 Adaptor], for which the binding result in data set [2] is given as “no binding”.

Turning to CAGGUAAGUA [10 nt U1 Domain RNA], the binding result in data set [1] (CITED Abad 2008, Gunderson 1998) is recorded as “binds”.
